Assay results taken from patent US20240294637A1 (DENDROCYTE BIOTECH, published 2024).
No constants are given. Whether binding was seen depends on the method and setting. Some entries that bind do so weakly or less than the wild type. For part of these data: Tags and fused reporters may be left off the sequences shown.

Experiments:
[1] = biological target: T1, CD300f-Ig fusion protein (recombinant CD300f-Fc protein, Sino Biologicals) (human) (UniProt Q8TDQ1); assay: ELISA on captured CD300f-Ig fusion protein
T1 sequence (looked up): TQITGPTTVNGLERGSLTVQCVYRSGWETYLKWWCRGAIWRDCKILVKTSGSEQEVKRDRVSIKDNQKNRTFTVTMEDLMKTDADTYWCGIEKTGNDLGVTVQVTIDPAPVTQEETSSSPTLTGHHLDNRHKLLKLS

[2] = biological target: T2, CD300f as naturally expressed on human myeloid cells (HEL, HL-60, THP-1, U937 cell lines; monocytes; AML blasts and LSCs; cord blood HSC) (human) (UniProt Q8TDQ1); assay: flow cytometry on monocyte populations of healthy PBMC
T2 sequence (looked up): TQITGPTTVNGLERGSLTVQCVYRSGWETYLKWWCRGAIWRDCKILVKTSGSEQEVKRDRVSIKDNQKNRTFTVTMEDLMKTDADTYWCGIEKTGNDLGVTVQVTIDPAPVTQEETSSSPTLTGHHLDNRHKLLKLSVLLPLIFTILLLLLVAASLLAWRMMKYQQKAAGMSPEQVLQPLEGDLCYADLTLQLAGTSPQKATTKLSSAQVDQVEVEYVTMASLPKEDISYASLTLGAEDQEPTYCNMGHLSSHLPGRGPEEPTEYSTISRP

[3] = biological target: T3, CD300f Isoform 1 (Accession number NP_620587) on CHO transfectant cell surface (human) (UniProt Q8TDQ1); assay: flow cytometry on CD300f isoform 1 CHO transfectants
T3 sequence (looked up): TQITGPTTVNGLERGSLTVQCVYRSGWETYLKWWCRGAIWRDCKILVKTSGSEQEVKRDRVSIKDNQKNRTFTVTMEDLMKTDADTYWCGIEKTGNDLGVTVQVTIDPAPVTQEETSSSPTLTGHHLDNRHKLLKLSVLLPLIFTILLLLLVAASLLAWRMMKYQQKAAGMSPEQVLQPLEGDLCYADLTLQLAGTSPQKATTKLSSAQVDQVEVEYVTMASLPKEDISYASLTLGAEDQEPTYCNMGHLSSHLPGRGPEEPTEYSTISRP

[4] = biological target: T2, CD300f as naturally expressed on human myeloid cells (HEL, HL-60, THP-1, U937 cell lines; monocytes; AML blasts and LSCs; cord blood HSC) (human); assay: flow cytometry on five AML samples, blasts and CD34^+CD38^- LSCs
[5] = biological target: T2, CD300f as naturally expressed on human myeloid cells (HEL, HL-60, THP-1, U937 cell lines; monocytes; AML blasts and LSCs; cord blood HSC) (human); assay: flow cytometry on cord blood hematopoietic stem cells
[6] = biological target: T2, CD300f as naturally expressed on human myeloid cells (HEL, HL-60, THP-1, U937 cell lines; monocytes; AML blasts and LSCs; cord blood HSC) (human); assay: flow cytometry on HEL, HL-60, THP-1 and U937 cell lines
[7] = biological target: T2, CD300f as naturally expressed on human myeloid cells (HEL, HL-60, THP-1, U937 cell lines; monocytes; AML blasts and LSCs; cord blood HSC) (human); assay: flow cytometry on CD300f^+ monocyte populations of healthy PBMC
[8] = biological target: T2, CD300f as naturally expressed on human myeloid cells (HEL, HL-60, THP-1, U937 cell lines; monocytes; AML blasts and LSCs; cord blood HSC) (human); assay: flow cytometry geoMFI ratio on myeloid cell lines
[9] = biological target: T1, CD300f-Ig fusion protein (recombinant CD300f-Fc protein, Sino Biologicals) (human); assay: discussion of the results; affinity was measured by Bio-Layer Interferometry on CD300f-Fc (FIG. 9)

- binding [1]: binds
- binding [2]: binds
- binding [3]: binds
- binding [4]: binds
- binding [5]: binds
- binding [6]: binds
- binding [7]: binds
- binding [8]: binds
- binding [9]: binds
B1: Monoclonal antibody DCR-2 (antibody, V domains shown)
VH: MESGGGLVQPGGPLKLSCAASGFGFSGSWMSWVRQAPGKGLEWIGQINPDSSTINYTPSLKDKFIISRDNAKNTLYLQINKVRSEDTALYYCARRGFFEGYSAWFAYWGQGTLVTV
VL: ILMTQTPKFLLVSAGDRVTITCKASQSVSNDVAWYQQKPGQSPSLLIYYASNRNTGVPDRFTGSGYETDFTFTISTVQAEDLAVYFCQQDYTSPWTFGGGTKLEIKR
notes: also called mAb DCR-2
